From patent US20100029620A1, “SUBSTITUTED TRIAZOLINE, TETRAZOLONE AND IMIDAZOLONE DERIVATIVES FOR USE AS A MEDICINE” (JANSSEN PHARMACEUTICA N.V., priority 2004, published 2010)

Amino acid sequences for entries named in this document (tags omitted).
UniProt P08913, whole entry: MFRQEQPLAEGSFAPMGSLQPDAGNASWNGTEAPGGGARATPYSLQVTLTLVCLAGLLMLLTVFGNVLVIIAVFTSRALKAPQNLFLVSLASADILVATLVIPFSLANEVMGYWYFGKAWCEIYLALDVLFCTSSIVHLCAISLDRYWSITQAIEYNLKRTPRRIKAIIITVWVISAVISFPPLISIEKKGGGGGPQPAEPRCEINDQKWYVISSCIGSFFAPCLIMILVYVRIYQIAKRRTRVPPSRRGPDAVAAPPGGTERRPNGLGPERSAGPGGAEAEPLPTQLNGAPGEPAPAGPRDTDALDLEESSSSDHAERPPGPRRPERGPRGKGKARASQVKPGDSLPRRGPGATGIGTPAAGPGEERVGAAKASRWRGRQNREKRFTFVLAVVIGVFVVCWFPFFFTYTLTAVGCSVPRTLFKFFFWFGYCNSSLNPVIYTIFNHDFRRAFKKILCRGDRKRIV

Biological target: human adrenergic-α2A receptor (Homo sapiens, UniProt P08913)
Assay: Radioligand binding experiment for α2A-adrenoceptor ([3H]-raulwolscine competition, CHO cell membranes)
Conditions: [3H]raulwolscine 1 nM, membranes of CHO cells transfected with human α2A receptor
Protocol: The interaction of the compounds of Formula (I) with α2C-adrenoceptor receptors was assessed in in vitro radioligand binding experiments. In general, a low concentration of a radioligand with a high binding affinity for a particular receptor or transporter is incubated with a sample of a tissue preparation enriched in a particular receptor or transporter or with a preparation of cells expressing cloned human receptors in a buffered medium. During the incubation, the radioligand binds to the receptor or transporter. When equilibrium of binding is reached, the receptor bound radioactivity is separated from the non-bound radioactivity, and the receptor- or transporter-bound activity is counted. The interaction of the test compounds with the receptor is assessed in competition binding experiments. […]
Membranes were thawed and re-homogenized in incubation buffer (glycylglycine 25 mM, pH 8.0). […] Filter-bound radioactivity was determined by scintillation counting in a Topcount (Packard, Meriden, CT) and results were expressed as counts per minute (cpm). Non-specific binding was determined in the presence of 1 μM oxymetazoline for hα2A- and hα2B receptors and 1 μM spiroxatrine for hα2C receptors.
Data from assays in the presence of compound were calculated as a percentage of total binding measured in the absence of test compound. […]

pIC50 α2A: 7.5 and 7.4
SMILES: O=c1n(CC2CCN(CCOc3ccccc3)CC2)cnn1CCN1CCN(Cc2ccc3ccccc3c2)CC1

Where “and” joins values, the source holds several entries; their conditions need not be identical. Identical values can stand only once. The match of structure and compound is tentative.
